Data: PMC7819943, “Rice protein-binding microarrays: a tool to detect cis-acting elements near promoter regions in rice”
This is one part of the list.

Protein sequences, listed by entry. Tags and fused reporters are not part of them.
UniProt Q0JBA9, entry or part of it: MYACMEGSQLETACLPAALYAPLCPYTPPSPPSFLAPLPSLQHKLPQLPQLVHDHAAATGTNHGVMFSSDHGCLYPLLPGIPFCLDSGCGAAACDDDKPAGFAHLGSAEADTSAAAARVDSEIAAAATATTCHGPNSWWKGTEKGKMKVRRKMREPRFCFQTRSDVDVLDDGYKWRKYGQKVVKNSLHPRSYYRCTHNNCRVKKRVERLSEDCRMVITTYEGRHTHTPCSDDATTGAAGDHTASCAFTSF

Biological target: OsWRKY34 (Oryza sativa, UniProt Q0JBA9 1-250)
Test: protein-binding microarray (RPBM); PBS, 2% BSA, 51.3 ng/ul salmon testes DNA, 50 uM zinc acetate, 200 nM TF, 25 C, 1 h; high values mean tight binding
Conditions: protein: recombinant; tags: N-terminal polyhistidine and DsRed monomer fusion (pET32a); label: CyDye5-dUTP incorporated in the synthesized complementary strand; 3' TTTTT single-stranded linker to array surface; dsDNA, one strand shown
Method in brief: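 Ni–NTA purification followed expression in E. coli BL21-CodonPlus of transcription factors fused N-terminally to a polyhistidine tag and DsRed. At 200 nM in PBS with 2% BSA, salmon testes DNA and 50 µM zinc acetate, the protein was incubated for 1 h at 25 °C with a custom Agilent array that had been primer-extended with Cy5-dUTP and blocked with 2% BSA. After washing, the array was read on an Axon 4000B scanner. The binding signal is per-feature fluorescence intensity in arbitrary units.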

**Q.** Which binding signal does the source give for “ATGGATCATGGATGGCTCCCGTTGTCATTGTCGCGTCGTCCGGAGTCACCTAGTGCAG” here?
**A.** The binding signal was 9810 fluorescence intensity (a.u.).

**Q.** How did the binding signal turn out when “CACCTCTTCTTGTCATGACTCCTAACAGTCAAGTTCCAACCGGAGTCACCTAGTGCAG” was run?
**A.** The binding signal was 9160 fluorescence intensity (a.u.).

**Q.** “TGGTTTTGTGATATTATGGATCTAAATATATTGTTTTATGCGGAGTCACCTAGTGCAG” was tested. Which binding signal did it give?
**A.** Its binding signal is 8690 fluorescence intensity (a.u.).

**Q.** With “GGTTGGTCTCTCTCTCCCTCGCCGCGTCCTGCTGGGAAATCGGAGTCACCTAGTGCAG” as the sequence, how does the binding signal read?
**A.** The binding signal was 14100 fluorescence intensity (a.u.).

**Q.** “TATACATGTCGGAATCTATCTACGGCCACGCATCTGGAGTCGGAGTCACCTAGTGCAG” was tested. Which binding signal did it give?
**A.** Its binding signal is 8820 fluorescence intensity (a.u.).

**Q.** “GTGTTTATGCCTCATCACTAATTAGAATCTTAATTTCTCTCGGAGTCACCTAGTGCAG” was tested. Which binding signal did it give?
**A.** Its binding signal is 8090 fluorescence intensity (a.u.).

**Q.** How did the binding signal turn out when “AACCACAGCCGTCCGATCCACACCCCGAGCCGCGCCCGAACGGAGTCACCTAGTGCAG” was run?
**A.** Its binding signal is 8170 fluorescence intensity (a.u.).

**Q.** For “CTCTTTCATGCAATAAACATCTACAACGTAATATCTTCTTCGGAGTCACCTAGTGCAG”, which binding signal is on record?
**A.** The binding signal was 8150 fluorescence intensity (a.u.).

**Q.** How did the binding signal turn out when “ACTTAGGAGAGATTGCCTGAGTGCCATCTTTTTTGTATCTCGGAGTCACCTAGTGCAG” was run?
**A.** Its binding signal is 8960 fluorescence intensity (a.u.).

**Q.** With “GATCCATGTATGAGTTGGATTTTAAGTTCGTTTGCTTTTCCGGAGTCACCTAGTGCAG” as the sequence, how does the binding signal read?
**A.** Its binding signal is 8760 fluorescence intensity (a.u.).

**Q.** With “GCTGGCTACATATCTGTAGCCCGATTCTCTTCTCTATCATCGGAGTCACCTAGTGCAG” as the sequence, how does the binding signal read?
**A.** Its binding signal is 8100 fluorescence intensity (a.u.).

**Q.** “AACACATCTATTGTCTCGTAAGTCATATCTATGGCACATTCGGAGTCACCTAGTGCAG” was tested. Which binding signal did it give?
**A.** The binding signal was 9590 fluorescence intensity (a.u.).

**Q.** For “TCTTCTTCTTCTTCACTTACTTGTCCATCTTCTTTCTTCTCGGAGTCACCTAGTGCAG”, which binding signal is on record?
**A.** Its binding signal is 9490 fluorescence intensity (a.u.).

**Q.** “GCGGATGATCTTGGCGGTCTCGATCTGGATCCACTTCTCCCGGAGTCACCTAGTGCAG” was tested. Which binding signal did it give?
**A.** Its binding signal is 8520 fluorescence intensity (a.u.).

**Q.** For “TTTTTCATAGTAAATTTTTTATTTTTGTTTCTACTTGTATCGGAGTCACCTAGTGCAG”, which binding signal is on record?
**A.** The binding signal was 9470 fluorescence intensity (a.u.).

**Q.** For “TACTCCTCGTCATTTTGGTTTTGGTTTTGGTTTGGGTGGTCGGAGTCACCTAGTGCAG”, which binding signal is on record?
**A.** Its binding signal is 10400 fluorescence intensity (a.u.).

**Q.** How did the binding signal turn out when “AGTCCATGATTAGCCATAAATGCTACAGTAACCTATATGTCGGAGTCACCTAGTGCAG” was run?
**A.** Its binding signal is 9700 fluorescence intensity (a.u.).

**Q.** How did the binding signal turn out when “TGTGTCTCGCCGTCTTGCGCGTATACCGTCTTCCGTGTGTCGGAGTCACCTAGTGCAG” was run?
**A.** Its binding signal is 9160 fluorescence intensity (a.u.).

**Q.** With “CCTCTGACTGACCTGTGGGCCCGTGCTGTCATTCCAATCTCGGAGTCACCTAGTGCAG” as the sequence, how does the binding signal read?
**A.** Its binding signal is 8610 fluorescence intensity (a.u.).

**Q.** For “CAAATCTCATCATACACCAGTACACCACGCCCTATAGAACCGGAGTCACCTAGTGCAG”, which binding signal is on record?
**A.** The binding signal was 8200 fluorescence intensity (a.u.).

**Q.** For “TCCCACCAGAGCGCCACGTCCACACCCACCCACACACCACCGGAGTCACCTAGTGCAG”, which binding signal is on record?
**A.** Its binding signal is 8070 fluorescence intensity (a.u.).

**Q.** How did the binding signal turn out when “AATTCTCCATGTGGTGTTTTTTTCTCCTGAAGATAAAGATCGGAGTCACCTAGTGCAG” was run?
**A.** Its binding signal is 9130 fluorescence intensity (a.u.).

**Q.** Which binding signal does the source give for “CTTTCAACTTTTTCGTCACATCATTCCAATTTTAACTAAACGGAGTCACCTAGTGCAG” here?
**A.** The binding signal was 10700 fluorescence intensity (a.u.).
